In publication PMC10950228:
Results are given in words; binding and its absence hold for the method and conditions named. Binding seen in cells or lysates may run through a third protein. Some binding calls cover weakened binding; strength is not graded here.

Columns and labels:
Experiment in all cases: pull-down; native streptavidin pulldown of SFB-RFWD3 (WT, C315A or C315A/I639K) from transfected HEK293T lysate (NETN buffer, 100 mM NaCl, 0.5% NP-40, benzonase), cells treated or not with 2 mM HU for 3 h; immunoblot
SFB-RFWD3 C315A (human) = target: T1, SFB-RFWD3 C315A (human) (UniProt Q6PCD5)
T1 sequence: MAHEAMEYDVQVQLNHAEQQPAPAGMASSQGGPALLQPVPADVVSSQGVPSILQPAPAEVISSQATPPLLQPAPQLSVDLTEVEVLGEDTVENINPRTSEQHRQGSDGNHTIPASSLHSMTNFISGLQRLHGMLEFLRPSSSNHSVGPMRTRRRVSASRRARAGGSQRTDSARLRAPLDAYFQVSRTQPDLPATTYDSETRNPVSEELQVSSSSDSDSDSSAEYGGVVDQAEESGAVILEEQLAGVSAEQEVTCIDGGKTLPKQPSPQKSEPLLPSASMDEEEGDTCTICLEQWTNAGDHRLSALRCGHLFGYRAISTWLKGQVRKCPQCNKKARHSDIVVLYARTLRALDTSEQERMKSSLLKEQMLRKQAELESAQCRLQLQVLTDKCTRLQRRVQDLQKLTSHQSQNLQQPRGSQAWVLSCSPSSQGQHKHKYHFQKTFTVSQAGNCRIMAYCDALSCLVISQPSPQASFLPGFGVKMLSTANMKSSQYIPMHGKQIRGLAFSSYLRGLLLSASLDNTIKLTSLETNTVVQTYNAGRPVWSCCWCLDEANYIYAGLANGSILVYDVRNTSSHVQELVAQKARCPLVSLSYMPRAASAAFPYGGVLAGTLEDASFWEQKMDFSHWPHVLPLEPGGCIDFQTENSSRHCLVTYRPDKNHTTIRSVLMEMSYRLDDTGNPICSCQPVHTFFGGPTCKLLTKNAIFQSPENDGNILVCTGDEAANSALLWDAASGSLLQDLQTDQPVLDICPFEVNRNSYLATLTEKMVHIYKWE

[1] = target: T2, SFB-RFWD3 C315A/I639K (human) (UniProt Q6PCD5)
T2 sequence: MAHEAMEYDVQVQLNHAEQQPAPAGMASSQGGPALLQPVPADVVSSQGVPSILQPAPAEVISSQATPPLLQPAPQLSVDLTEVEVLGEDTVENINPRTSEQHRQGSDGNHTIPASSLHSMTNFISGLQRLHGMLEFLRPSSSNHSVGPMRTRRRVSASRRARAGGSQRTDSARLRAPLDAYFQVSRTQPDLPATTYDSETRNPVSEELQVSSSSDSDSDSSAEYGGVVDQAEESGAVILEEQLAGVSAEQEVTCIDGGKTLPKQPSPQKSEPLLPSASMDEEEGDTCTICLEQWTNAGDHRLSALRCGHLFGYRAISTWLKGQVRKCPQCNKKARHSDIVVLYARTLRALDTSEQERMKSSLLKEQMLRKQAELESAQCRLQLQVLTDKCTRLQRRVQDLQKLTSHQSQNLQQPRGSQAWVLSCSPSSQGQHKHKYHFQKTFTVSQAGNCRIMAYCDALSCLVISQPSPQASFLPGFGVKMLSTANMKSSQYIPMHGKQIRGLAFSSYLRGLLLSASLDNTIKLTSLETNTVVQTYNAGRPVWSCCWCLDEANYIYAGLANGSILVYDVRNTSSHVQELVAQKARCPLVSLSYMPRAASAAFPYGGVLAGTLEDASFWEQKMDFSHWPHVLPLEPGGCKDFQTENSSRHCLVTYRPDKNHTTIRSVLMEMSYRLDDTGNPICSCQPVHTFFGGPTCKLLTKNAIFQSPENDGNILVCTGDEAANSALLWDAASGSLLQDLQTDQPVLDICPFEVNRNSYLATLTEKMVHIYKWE

SFB-RFWD3 WT (human) = target: T3, SFB-RFWD3 WT (human) (UniProt Q6PCD5)
T3 sequence: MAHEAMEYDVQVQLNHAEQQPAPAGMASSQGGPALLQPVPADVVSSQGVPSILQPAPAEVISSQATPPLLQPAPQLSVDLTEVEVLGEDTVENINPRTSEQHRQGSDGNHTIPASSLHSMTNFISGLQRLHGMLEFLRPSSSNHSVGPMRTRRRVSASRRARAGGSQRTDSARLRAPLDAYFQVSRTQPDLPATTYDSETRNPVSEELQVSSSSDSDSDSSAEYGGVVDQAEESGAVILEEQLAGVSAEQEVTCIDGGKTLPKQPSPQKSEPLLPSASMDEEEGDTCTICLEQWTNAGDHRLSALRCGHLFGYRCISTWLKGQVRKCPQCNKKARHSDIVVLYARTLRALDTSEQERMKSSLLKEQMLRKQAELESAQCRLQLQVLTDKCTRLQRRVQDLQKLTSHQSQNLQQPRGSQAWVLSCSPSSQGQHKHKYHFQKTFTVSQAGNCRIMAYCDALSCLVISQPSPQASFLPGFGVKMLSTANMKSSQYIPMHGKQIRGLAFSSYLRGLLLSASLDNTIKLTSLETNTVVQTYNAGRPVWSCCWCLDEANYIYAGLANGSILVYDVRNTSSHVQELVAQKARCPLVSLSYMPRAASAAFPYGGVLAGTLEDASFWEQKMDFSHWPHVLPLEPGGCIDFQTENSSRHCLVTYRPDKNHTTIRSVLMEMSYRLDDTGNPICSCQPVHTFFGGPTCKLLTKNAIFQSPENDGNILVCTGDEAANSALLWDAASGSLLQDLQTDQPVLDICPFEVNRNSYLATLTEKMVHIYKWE

binding (SFB-RFWD3 C315A (human)): binds
binding [1]: no binding
binding (SFB-RFWD3 WT (human)): binds
B1: endogenous SMARCAL1 (protein, UniProt Q9NZC9 1-954)
chain: MSLPLTEEQRKKIEENRQKALARRAEKLLAEQHQRTSSGTSIAGNPFQAKQGPSQNFPRESCKPVSHGVIFKQQNLSSSSNADQRPHDSHSFQAKGIWKKPEEMPTACPGHSPRSQMALTGISPPLAQSPPEVPKQQLLSYELGQGHAQASPEIRFTPFANPTHKPLAKPKSSQETPAHSSGQPPRDAKLEAKTAKASPSGQNISYIHSSSESVTPRTEGRLQQKSGSSVQKGVNSQKGKCVRNGDRFQVLIGYNAELIAVFKTLPSKNYDPDTKTWNFSMNDYSALMKAAQSLPTVNLQPLEWAYGSSESPSTSSEGQAGLPSAPSLSFVKGRCMLISRAYFEADISYSQDLIALFKQMDSRRYDVKTRKWSFLLEEHSKLIAKVRCLPQVQLDPLPTTLTLAFASQLKKTSLSLTPDVPEADLSEVDPKLVSNLMPFQRAGVNFAIAKGGRLLLADDMGLGKTIQAICIAAFYRKEWPLLVVVPSSVRFTWEQAFLRWLPSLSPDCINVVVTGKDRLTAGLINIVSFDLLSKLEKQLKTPFKVVIIDESHFLKNSRTARCRAAMPVLKVAKRVILLSGTPAMSRPAELYTQIIAVKPTFFPQFHAFGLRYCDAKRMPWGWDYSGSSNLGELKLLLEEAVMLRRLKSDVLSQLPAKQRKIVVIAPGRINARTRAALDAAAKEMTTKDKTKQQQKDALILFFNRTAEAKIPSVIEYILDLLESGREKFLVFAHHKVVLDAITQELERKHVQHIRIDGSTSSAEREDLCQQFQLSERHAVAVLSITAANMGLTFSSADLVVFAELFWNPGVLIQAEDRVHRIGQTSSVGIHYLVAKGTADDYLWPLIQEKIKVLAEAGLSETNFSEMTESTDYLYKDPKQQKIYDLFQKSFEKEGSDMELLEAAESFDPGSASGTSGSSSQNMGDTLDESSLTASPQKKRRFEFFDNWDSFTSPL
